The other results are listed elsewhere or left out. The main result of the screen is listed elsewhere. These columns were measured beside it and carry no call. Most of these compounds were active or inconclusive in the main read-out, so they are no random draw. Potencies come from curve fits of mixed quality, noted in brackets.
Assay: qHTS Assay for Lipid Storage Modulators in Drosophila S3 Cells;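 for cell number change: cells counted by Cell Tracker Red CMTPX staining in the red channel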
Settings: BODIPY lipid droplet fluorescence, 18-24 h; for cell number change: measured here: cell count max response, cells fed with added oleic acid
Method in brief: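 Drosophila S3 cells loaded with oleic acid (400 uM, as added) and compounds at several concentrations; lipid droplets imaged by 488-nm laser-scanning cytometry, 500–530 nm intensity and object ratio to cell channel. Percent activity normalized to 20 uM Triacsin C.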

[1] = measured here: lipid fluorescence (Fed channel) AC50, cells fed with added oleic acid
[2] = measured here: cell number channel AC50, cells fed with added oleic acid

Row | SMILES | cell number change [%] | AC50 [1] | AC50 [2]
1 | COc1ccccc1C(=O)Nc1cccc2c1CCCC2 | -28 |  | 
2 | CCCn1c(SCC(=O)NC(=O)NCc2ccco2)n[nH]c1=O | 4.46 | 7.31 µM [falling, partial curve, poor fit] | 
3 | Cc1ccc(C(=O)CSc2nc(C)cc(SCc3nnc(-c4ccccc4)o3)n2)cc1 | 34.1 | 1.3 µM [rising, partial curve] | 0.82 µM [rising, full curve, poor fit]
4 | COc1ccccc1NC(=O)C(NC(=O)OC(C)(C)C)C(C)OCc1ccccc1 (stereo not given) | -27.3 | 29.1 µM [falling, single point] | 
5 | CN(Cc1ccc(OC(F)F)cc1)C(=O)c1ccc2nccnc2c1 | 0.218 | 29.1 µM [rising, single point] | 
6 | CCN(C(=O)c1cccc(NC(=O)c2ccccc2)c1)C1CCCCC1 | -13.9 | 29.1 µM [falling, single point] | 
7 | COC(=O)/C=C1\S/C(=N\N=C\CC(=O)OC)NC1=O | -21.8 | 1.3 µM [falling, full curve] | 
8 | Cc1cc(NC(=O)C(C)SCC(=O)Nc2cc(C(F)(F)F)ccc2N2CCCCC2)no1 (stereo not given) |  | 1.64 µM [rising, partial curve] | 2.31 µM [rising, partial curve]
9 | CN(C)CCN1C(=O)c2oc3ccccc3c(=O)c2C1c1cccc(Br)c1 (stereo not given) | 57.7 |  | 7.31 µM [rising, partial curve]
10 | C=CCn1cnc2scc(-c3ccc(CC)cc3)c2c1=O | 76.9 | 0.82 µM [rising, partial curve] | 25.9 µM [rising, partial curve, poor fit]
11 | O=C(/C=C/c1ccccc1[N+](=O)[O-])N1CCN(C(=O)c2ccco2)CC1 | 35.3 |  | 
12 | Cc1c(Cl)cccc1NS(=O)(=O)c1ccc(-c2ccc(=O)[nH]n2)o1 | 5.11 | 29.1 µM [falling, single point] | 
13 | Cc1ccc2oc(C(=O)Nc3ccc(S(=O)(=O)Nc4onc(C)c4C)cc3)cc(=O)c2c1 | -18.9 | 0.58 µM [rising, single point] | 
14 | COc1cc2c(cc1OC)CN(C(=O)CSc1nc(C)cc(C)c1C#N)CC2 | -30 | 29.1 µM [falling, single point] | 
15 | CCc1ccc(Nc2n[n+](C)c(-c3ccncc3)s2)cc1 | 14.4 |  | 
16 | COc1ccc(CCN(CC(=O)NCc2ccc(F)cc2)C(=O)c2snc(C(N)=O)c2N)cc1OC | 8.26 | 6.51 µM [rising, single point] | 
17 | Cc1ccc(NS(=O)(=O)c2cc(-c3n[nH]c(=O)c4ccccc34)ccc2C)cc1 | -41 | 0.651 µM [rising, full curve] | 29.1 µM [falling, single point]
18 | CCCCN(CC)S(=O)(=O)c1ccc(C(=O)Nc2nnc(COC)o2)cc1 | -6.41 |  | 
19 | COc1cc(C(=O)NC(C)c2cccc3ccccc23)cc(OC)c1OC (stereo not given) | 1.84 | 16.4 µM [falling, single point] | 
20 | N#C/C(=C\c1ccc(O)c(Br)c1)C(=O)N1CCCCC1 | -13 | 6.51 µM [falling, single point] | 
21 | CN(C(=O)COC(=O)c1cc2c(s1)CCCCC2)c1ccccc1 | 13.9 |  | 

Row | SMILES | cell number change [%] | AC50 [1] | AC50 [2]
22 | CC1(C)CC(N2CCCC2)=CC(=[N+]2CCCCC2)C1 | -38.1 |  | 1.84 µM [falling, partial curve]
23 | CC(OC(=O)CCC(=O)c1ccc(F)cc1)C(=O)NC1CCCCC1C (stereo not given) | -23.8 | 0.731 µM [falling, full curve, poor fit] | 
24 | CCNc1nc2c(c(=O)[nH]c(=O)n2C)n1CCCc1ccccc1 | 1.46 | 3.26 µM [rising, partial curve] | 
25 | O=C(c1cc2ccccc2o1)N1CCOCC1 |  | 29.1 µM [falling, single point] | 
26 | CC1=CC(C)(C)n2c(O)c(N=N)c3c(C)c(C)cc1c32 | -25.3 | 4.61 µM [falling, full curve] | 
27 | O=C(NCCc1c[nH]c2ccccc12)/C(=C\c1cccnc1)NC(=O)c1ccccc1F |  | 6.51 µM [falling, single point] | 
28 | Cc1noc(NS(=O)(=O)c2ccc(NC(=O)CS(=O)(=O)c3ccccc3)cc2)c1C | -22.7 | 13 µM [falling, partial curve] | 
29 | CCOC(=O)C1(Cc2cccc(F)c2)CCN(C(=O)c2ccoc2C)CC1 | 11.1 | 0.58 µM [rising, full curve, poor fit] | 
30 | CC(NC(=O)Cc1ccccc1)C(=O)O (stereo not given) | 3.16 | 0.00517 µM [rising, full curve, poor fit] | 
31 | O=[N+]([O-])c1ccc(Oc2ccc(S(=O)(=O)Nc3ccccc3)cc2)cc1 | -2.54 | 16.4 µM [falling, single point] | 
32 | CN=C1SC(CC(=O)Nc2c(C)cccc2C)C(=O)N1/N=C/c1cccs1 (stereo not given) | -16.7 |  | 0.92 µM [rising, full curve]
33 | CCCCCC(=O)Nc1ccc2oc(-c3cncc(Br)c3)nc2c1 | 35.2 | 0.82 µM [rising, partial curve] | 0.13 µM [rising, partial curve]
34 | O=C(NCCCn1ccnc1)C(=O)NCC1OCCCN1S(=O)(=O)c1ccc(F)cc1 (stereo not given) | -25.9 |  | 0.0206 µM [falling, full curve, poor fit]
35 | O=C(NCCN1CCN(C(=O)c2c(F)cccc2F)CC1)C(=O)Nc1ccc(Cl)cc1 | -12.7 |  | 
36 | COc1ccccc1N(C(=O)c1snc(C(N)=O)c1N)C(C(=O)NCc1ccccc1)c1ccc(C)o1 (stereo not given) | 0.806 | 4.11 µM [falling, single point] | 
37 | CCc1noc(C)c1C(=O)N(C)CC(=O)Nc1ccc(Cl)c(Cl)c1 |  | 2.31 µM [rising, single point] | 
38 | CC1Cc2ccccc2N1C(=S)NC(=O)C1(C)CC1(Cl)Cl (stereo not given) | -7.06 | 0.13 µM [falling, full curve, poor fit] | 0.13 µM [falling, full curve, poor fit]
39 | CCN(CC)S(=O)(=O)c1ccc2c(c1)c(=O)c(C(=O)NCCOC)cn2C | 48.3 | 6.51 µM [rising, full curve] | 6.51 µM [rising, full curve]
40 | COC(=O)c1cc(N2C(=O)C3C(C2=O)C2(C)C=CC3(C)O2)ccc1Cl (stereo not given) | -50.5 | 20.6 µM [falling, partial curve] | 
41 | O=C(COc1ccc(F)cc1)Nc1nnc(C2CCCCC2)s1 | 14 | 20.6 µM [falling, single point] | 
42 | CCOc1cc(NC(=O)C2CC2)c(OCC)cc1NC(=O)c1cc(OC)c(OC)c(OC)c1 | 18.8 |  | 

Row | SMILES | cell number change [%] | AC50 [1] | AC50 [2]
43 | C/C(=N\NC(=O)c1cccc(N/N=C(\C)c2cc(O)ccc2O)c1)c1cc(O)ccc1O | 11.1 | 1.03 µM [falling, full curve] | 0.731 µM [falling, full curve]
44 | CCCCCC(N)=O | -37.8 | 29.1 µM [falling, partial curve, poor fit] | 29.1 µM [falling, partial curve, poor fit]
45 | CCCc1nc(SCC(=O)NC2CCCC2)c2ccccc2n1 | 7.39 |  | 
46 | CC(=O)N1CCN(c2ccc([N+](=O)[O-])cc2C#N)CC1 | -9.16 |  | 
47 | O=C(NCC1CCCO1)c1cccs1 (stereo not given) | 9.17 |  | 
48 | CCCN1CCN(C(c2cc3cc(OCC)ccc3[nH]c2=O)c2nnnn2C2CCCCC2)CC1 (stereo not given) | -59.6 | 3.26 µM [falling, full curve, poor fit] | 29.1 µM [falling, single point]
49 | O=C(c1ccc(S(=O)(=O)NCC2CCCO2)cc1)N1CCc2ccccc21 (stereo not given) | -32.7 | 6.51 µM [rising, single point] | 14.6 µM [falling, partial curve]
50 | Nc1c(C(=O)NCc2ccc3c(c2)OCO3)c2nc3ccccc3nc2n1CCCN1CCOCC1 | -17.2 | 18.4 µM [falling, single point] | 
51 | O=C(O)C1CCN(c2ccc(Cl)nn2)CC1 | -49.3 |  | 29.1 µM [falling, single point]
52 | COCC(C)N=C1SCCN1Cc1ccccc1 (stereo not given) | -2.1 |  | 
53 | CCN(CC)CCCNC(=O)c1cc(-c2ccc(O)cc2)on1 | 17.3 |  | 
54 | O=C(NCCc1ccc(F)cc1)c1n[nH]c2ccccc12 | 26.4 |  | 4.61 µM [rising, full curve, poor fit]
55 | CCOC(=O)c1c(/N=C/C2C(=O)CC(C)(C)CC2=O)sc(C)c1C | 1.61 | 2.59 µM [rising, full curve, poor fit] | 
56 | C=C(C)CSc1nc(N)c(C#N)c(-c2ccc(C)cc2)c1C#N | 69.3 |  | 25.9 µM [rising, single point]
57 | COC(=O)c1c(NC(=O)CSc2nnc(CNc3ccc(Cl)cc3)o2)sc(C)c1C | 26 | 3.26 µM [rising, partial curve] | 1.03 µM [rising, full curve, poor fit]
58 | Cc1ccccc1NC(=O)n1ncc2cc(Cl)ccc21 | 37.8 |  | 
59 | C/C=C/c1ccc(OCCOc2cc(C=O)ccc2OC)c(OC)c1 | -4.45 | 0.366 µM [rising, full curve, poor fit] | 
60 | O=C(NCc1ccccn1)c1cccc([N+](=O)[O-])c1 | 13 | 1.46 µM [rising, full curve] | 
61 | C=CCC(=O)OCC(=O)Nc1ccc(Oc2ccccc2)cc1 | 17.9 | 11.6 µM [rising, single point] | 
62 | CC(Cc1ccccc1)NC(=O)CC(c1ccccc1)c1ccccc1O (stereo not given) | -30.6 | 6.51 µM [falling, single point] | 0.517 µM [falling, full curve]
